From publication PMC10094283
No constants are given. Whether binding was seen depends on the method and setting. For part of these data: Binding seen in cells or lysates may run through a third protein. Some entries that bind do so weakly or less than the wild type.

Amino acid sequences for entries named in this document (tags omitted). A change or cut given only in a name is not applied to a line headed by its entry. Chains listed by the source or under a name are the forms on record and can include a tag or linker. Residues count along the entry.
UniProt Q9Y4A5: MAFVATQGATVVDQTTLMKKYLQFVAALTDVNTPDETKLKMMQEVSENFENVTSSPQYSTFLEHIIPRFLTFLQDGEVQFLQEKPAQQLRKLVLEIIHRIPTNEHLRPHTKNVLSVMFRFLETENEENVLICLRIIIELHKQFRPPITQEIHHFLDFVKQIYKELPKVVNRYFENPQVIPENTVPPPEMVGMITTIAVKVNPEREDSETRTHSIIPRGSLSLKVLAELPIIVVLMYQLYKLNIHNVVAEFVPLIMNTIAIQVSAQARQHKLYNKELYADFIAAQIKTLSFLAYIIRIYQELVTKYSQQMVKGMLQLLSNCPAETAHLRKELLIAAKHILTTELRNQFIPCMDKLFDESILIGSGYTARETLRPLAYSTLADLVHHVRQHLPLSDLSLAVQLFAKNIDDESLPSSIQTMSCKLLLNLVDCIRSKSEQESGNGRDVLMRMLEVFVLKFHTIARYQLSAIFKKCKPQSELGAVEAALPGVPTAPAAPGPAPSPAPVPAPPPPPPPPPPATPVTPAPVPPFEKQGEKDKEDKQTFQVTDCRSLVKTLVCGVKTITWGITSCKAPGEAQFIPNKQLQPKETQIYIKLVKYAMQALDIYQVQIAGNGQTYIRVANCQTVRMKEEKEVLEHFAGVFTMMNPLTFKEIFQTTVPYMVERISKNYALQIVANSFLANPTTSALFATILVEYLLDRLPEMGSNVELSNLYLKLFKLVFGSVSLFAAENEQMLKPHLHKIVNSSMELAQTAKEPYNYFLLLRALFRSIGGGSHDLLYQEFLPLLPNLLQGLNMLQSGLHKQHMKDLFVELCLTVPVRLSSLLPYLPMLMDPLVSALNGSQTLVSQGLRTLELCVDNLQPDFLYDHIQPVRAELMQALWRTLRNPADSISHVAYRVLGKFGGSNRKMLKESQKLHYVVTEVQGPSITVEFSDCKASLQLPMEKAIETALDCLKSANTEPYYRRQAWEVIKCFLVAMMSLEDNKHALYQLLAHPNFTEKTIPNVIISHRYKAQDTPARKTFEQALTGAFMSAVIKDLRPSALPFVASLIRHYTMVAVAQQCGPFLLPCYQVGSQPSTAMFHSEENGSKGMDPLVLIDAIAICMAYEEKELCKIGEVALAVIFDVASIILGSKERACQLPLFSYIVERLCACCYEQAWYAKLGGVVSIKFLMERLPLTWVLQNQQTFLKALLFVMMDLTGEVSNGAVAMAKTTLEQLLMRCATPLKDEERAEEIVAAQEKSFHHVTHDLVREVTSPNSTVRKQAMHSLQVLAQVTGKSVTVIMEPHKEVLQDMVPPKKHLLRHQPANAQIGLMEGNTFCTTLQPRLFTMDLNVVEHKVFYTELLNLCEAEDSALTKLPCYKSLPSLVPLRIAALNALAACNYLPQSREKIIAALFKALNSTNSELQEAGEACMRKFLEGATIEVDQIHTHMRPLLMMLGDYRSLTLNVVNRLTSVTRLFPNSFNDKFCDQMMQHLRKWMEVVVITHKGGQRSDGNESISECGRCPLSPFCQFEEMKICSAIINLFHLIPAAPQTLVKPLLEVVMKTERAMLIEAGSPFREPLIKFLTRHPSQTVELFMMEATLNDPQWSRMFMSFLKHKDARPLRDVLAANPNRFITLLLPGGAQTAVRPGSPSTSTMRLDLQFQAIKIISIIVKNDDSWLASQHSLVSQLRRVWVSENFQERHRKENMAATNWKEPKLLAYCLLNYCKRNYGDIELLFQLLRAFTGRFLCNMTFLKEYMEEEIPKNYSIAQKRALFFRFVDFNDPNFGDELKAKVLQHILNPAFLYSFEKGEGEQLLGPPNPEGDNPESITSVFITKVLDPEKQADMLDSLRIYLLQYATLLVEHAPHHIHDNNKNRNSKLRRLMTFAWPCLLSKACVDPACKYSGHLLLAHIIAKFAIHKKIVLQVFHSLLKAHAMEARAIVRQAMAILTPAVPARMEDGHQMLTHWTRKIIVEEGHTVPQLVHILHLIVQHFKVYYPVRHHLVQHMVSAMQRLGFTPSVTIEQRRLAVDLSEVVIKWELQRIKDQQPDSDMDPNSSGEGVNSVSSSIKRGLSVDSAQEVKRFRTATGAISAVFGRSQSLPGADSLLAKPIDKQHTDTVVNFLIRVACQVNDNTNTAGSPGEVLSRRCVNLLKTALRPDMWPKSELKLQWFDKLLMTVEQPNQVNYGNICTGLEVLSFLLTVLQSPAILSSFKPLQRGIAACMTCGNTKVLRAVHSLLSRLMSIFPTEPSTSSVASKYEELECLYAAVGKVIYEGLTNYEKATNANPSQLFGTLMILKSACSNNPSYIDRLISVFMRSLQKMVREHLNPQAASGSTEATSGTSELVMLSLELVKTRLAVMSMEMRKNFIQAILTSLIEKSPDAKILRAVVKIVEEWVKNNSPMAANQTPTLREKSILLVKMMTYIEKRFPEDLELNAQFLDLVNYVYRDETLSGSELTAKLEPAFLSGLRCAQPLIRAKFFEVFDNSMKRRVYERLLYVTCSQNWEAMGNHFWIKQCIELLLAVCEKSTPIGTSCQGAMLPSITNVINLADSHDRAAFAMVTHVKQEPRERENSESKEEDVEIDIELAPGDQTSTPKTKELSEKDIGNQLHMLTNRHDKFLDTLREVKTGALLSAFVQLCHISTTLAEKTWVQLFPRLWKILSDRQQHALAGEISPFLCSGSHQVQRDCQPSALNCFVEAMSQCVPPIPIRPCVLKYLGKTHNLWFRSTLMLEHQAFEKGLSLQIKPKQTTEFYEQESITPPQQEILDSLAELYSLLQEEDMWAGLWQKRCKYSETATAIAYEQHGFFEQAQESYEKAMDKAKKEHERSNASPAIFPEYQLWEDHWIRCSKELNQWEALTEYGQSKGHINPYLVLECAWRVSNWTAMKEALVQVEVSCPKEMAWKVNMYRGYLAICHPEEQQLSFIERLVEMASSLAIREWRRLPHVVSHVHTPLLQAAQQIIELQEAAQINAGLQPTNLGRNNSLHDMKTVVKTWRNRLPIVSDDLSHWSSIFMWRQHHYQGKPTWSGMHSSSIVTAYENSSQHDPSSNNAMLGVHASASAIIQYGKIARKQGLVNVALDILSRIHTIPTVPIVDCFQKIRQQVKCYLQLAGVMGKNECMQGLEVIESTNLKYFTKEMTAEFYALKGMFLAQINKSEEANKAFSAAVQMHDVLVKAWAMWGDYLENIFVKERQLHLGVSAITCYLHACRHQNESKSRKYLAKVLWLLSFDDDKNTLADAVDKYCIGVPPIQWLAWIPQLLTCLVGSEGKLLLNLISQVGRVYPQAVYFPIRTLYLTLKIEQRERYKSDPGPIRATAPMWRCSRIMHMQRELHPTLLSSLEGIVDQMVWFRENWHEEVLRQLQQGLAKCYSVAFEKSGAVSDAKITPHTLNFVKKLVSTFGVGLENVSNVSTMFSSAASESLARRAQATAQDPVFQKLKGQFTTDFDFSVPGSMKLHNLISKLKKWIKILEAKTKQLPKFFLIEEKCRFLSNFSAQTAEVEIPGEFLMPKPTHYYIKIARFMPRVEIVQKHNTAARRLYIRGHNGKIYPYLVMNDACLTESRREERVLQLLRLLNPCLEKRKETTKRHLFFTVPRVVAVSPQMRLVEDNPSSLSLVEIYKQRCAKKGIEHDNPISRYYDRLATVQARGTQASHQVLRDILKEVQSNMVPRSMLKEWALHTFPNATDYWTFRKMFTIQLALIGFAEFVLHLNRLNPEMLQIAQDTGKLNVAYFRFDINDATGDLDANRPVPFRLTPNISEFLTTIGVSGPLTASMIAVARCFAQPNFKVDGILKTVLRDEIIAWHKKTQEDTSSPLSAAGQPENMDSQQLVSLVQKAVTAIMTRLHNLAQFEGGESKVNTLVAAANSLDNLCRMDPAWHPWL
FLAG-tagged TRRAP domain 2 (TRRAP D2, amino acids 1898-2400): residues 1898-2400 of Q9Y4A5
UniProt Q9H9S0: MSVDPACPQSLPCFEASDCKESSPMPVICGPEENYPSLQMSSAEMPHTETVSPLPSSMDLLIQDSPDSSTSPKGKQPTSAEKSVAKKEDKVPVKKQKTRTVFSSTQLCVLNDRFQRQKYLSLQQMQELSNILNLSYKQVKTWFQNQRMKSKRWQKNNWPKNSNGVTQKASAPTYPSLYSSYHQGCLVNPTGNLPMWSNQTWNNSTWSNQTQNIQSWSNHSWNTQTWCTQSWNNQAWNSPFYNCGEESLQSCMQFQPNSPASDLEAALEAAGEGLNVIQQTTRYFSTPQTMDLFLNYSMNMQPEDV

How the values were obtained:
[1] = molecular target: FLAG-tagged full-length TRRAP (transformation/transcription domain-associated protein) (UniProt Q9Y4A5); test: pull-down; TAP-NANOG purified with streptavidin agarose and eluted using biotin, then incubated with the immunoprecipitants of FLAG-TRRAP; both purified
[2] = molecular target: FLAG-tagged TRRAP domain 2 (TRRAP D2, amino acids 1898-2400) (UniProt Q9Y4A5); test: co-IP; HEK293 cells co-transfected with FLAG-TRRAP constructs and TAP-NANOG; 1 mg lysate (25 mM Tris-HCl pH 8.0, 150 mM NaCl, 0.1% NP-40) incubated with anti-FLAG M2 affinity gel 2 h at 4 °C; Western blot
[3] = molecular target: FLAG-tagged full-length TRRAP (transformation/transcription domain-associated protein) (UniProt Q9Y4A5); test: as above

Measured: binding

TAP-tagged NANOG (from UniProt Q9H9S0 1-305)
binds: all assays above
